Assay [1] has as its target T1, HA-tagged RASSF2 (UniProt P50749).
T1 sequence: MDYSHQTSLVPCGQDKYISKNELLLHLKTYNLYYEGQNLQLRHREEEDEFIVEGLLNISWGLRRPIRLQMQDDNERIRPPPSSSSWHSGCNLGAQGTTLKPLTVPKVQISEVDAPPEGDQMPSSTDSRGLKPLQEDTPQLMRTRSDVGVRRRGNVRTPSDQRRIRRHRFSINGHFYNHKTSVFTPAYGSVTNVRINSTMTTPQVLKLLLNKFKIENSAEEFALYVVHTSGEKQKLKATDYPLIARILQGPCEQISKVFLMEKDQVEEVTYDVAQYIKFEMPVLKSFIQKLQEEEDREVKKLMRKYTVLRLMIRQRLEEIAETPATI
Kind of assay: affinity purification with mass spectrometry; HA-RASSF2 transfected into HEK-293T cells, immunoprecipitated by the HA tag; co-purifying proteins identified by LC-MS; done in the presence and absence of activated K-Ras12v.

Chains of the proteins cited; added tags and fusions are not shown. Residues count along the entry.
UniProt Q8IWZ3: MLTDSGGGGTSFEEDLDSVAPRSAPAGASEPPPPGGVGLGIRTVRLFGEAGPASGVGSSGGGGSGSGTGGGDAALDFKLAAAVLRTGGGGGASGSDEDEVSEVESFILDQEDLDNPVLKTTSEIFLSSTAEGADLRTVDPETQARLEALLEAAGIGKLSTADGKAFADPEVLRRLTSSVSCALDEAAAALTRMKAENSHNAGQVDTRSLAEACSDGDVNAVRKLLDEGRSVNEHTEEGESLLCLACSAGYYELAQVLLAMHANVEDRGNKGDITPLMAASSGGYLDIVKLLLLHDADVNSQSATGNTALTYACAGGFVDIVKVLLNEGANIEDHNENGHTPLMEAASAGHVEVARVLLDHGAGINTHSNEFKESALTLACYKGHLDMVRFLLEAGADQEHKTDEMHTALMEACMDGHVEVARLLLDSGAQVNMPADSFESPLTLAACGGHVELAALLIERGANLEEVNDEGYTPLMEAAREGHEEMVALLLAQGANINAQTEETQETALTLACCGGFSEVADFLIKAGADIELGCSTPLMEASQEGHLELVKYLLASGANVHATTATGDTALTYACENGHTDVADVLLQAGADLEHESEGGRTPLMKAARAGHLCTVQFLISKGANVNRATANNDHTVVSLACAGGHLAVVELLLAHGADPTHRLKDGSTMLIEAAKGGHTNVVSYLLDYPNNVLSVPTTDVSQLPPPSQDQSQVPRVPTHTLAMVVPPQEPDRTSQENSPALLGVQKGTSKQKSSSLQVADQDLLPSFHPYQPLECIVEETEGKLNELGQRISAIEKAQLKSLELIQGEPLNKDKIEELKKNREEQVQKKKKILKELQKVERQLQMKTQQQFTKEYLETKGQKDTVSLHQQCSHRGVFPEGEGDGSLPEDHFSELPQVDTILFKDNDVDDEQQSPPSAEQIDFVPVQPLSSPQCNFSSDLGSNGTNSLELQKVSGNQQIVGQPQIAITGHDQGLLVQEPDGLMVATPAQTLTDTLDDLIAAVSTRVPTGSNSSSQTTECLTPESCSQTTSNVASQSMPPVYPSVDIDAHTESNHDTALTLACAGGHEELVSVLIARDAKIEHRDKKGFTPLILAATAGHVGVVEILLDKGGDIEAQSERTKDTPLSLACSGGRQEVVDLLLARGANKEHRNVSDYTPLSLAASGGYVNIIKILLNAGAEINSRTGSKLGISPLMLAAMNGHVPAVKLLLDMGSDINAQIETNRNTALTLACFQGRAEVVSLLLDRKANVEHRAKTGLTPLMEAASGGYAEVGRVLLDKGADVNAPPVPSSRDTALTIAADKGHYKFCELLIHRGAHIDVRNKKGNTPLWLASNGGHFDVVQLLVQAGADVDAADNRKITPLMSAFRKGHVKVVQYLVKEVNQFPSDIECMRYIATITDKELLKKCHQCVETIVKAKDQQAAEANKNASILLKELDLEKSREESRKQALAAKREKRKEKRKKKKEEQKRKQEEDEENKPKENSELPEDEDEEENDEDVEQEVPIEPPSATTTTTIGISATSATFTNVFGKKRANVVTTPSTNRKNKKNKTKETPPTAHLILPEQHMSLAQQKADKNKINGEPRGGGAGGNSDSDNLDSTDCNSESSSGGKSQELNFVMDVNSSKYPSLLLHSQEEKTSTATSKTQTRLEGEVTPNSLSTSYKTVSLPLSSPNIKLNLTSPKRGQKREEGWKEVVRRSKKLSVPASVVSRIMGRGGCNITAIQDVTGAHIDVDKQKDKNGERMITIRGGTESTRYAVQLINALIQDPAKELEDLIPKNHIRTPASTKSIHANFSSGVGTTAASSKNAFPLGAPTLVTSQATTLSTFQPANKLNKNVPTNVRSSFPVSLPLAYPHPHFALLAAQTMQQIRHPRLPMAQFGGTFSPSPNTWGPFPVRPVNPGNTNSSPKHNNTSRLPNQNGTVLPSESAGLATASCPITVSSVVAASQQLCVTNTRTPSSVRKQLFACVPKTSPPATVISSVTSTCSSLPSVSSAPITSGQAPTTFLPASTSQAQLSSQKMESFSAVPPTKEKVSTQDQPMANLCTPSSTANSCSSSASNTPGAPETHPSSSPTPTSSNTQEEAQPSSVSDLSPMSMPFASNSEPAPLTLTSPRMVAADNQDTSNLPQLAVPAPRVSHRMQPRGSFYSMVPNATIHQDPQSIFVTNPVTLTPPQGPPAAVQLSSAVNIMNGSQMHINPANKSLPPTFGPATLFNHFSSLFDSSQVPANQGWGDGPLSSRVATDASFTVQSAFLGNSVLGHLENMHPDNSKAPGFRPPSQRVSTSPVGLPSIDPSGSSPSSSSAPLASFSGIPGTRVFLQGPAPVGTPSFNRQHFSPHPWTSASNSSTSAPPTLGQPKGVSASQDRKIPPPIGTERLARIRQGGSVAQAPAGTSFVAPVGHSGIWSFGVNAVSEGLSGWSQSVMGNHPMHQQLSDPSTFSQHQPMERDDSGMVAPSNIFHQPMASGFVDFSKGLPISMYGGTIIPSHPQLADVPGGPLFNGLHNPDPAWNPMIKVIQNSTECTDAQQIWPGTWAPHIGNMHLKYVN
UniProt P62258: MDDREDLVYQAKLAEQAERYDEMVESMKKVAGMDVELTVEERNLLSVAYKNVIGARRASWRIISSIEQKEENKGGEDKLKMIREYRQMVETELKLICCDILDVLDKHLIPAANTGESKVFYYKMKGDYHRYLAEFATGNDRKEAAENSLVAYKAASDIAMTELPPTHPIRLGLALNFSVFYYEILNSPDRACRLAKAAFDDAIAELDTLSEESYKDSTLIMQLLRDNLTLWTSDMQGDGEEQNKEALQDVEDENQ
UniProt Q07021, residues 74-282: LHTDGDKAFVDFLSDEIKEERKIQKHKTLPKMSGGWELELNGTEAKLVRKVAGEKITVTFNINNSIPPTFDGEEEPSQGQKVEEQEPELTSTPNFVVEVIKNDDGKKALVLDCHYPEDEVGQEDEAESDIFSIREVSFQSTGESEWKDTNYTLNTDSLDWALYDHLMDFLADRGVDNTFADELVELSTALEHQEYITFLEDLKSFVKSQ
UniProt P08670: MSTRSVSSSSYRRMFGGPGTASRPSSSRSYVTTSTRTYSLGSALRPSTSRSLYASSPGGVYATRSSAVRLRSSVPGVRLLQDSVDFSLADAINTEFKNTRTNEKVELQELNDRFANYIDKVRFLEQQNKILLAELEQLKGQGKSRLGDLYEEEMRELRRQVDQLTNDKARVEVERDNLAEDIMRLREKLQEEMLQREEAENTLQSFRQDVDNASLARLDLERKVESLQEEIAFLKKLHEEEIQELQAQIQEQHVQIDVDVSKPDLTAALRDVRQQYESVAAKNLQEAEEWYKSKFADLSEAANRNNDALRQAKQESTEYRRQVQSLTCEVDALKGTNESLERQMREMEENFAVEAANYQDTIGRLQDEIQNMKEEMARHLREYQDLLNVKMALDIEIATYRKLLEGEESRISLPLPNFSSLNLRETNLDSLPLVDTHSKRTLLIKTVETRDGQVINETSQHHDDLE

Assay [2] deals with T1, HA-tagged RASSF2. The assay can be described thus: condition: only with activated K-Ras12v co-expressed; affinity purification with mass spectrometry; as a1, sample with activated K-Ras12v co-expressed (+K-Ras12v column).

These are yes or no findings as the source states them, for the method shown. In cells and extracts the contact can be indirect. These calls come from enrichment with a bait or labelling near it, and not all partners need be listed. For some assays here: A no says only that the protein was not detected with the bait. Sequences can lack the tags named with a protein.

With “Ankyrin repeat and KH domain-containing protein 1 (from UniProt Q8IWZ3 1-2542)”, in the assay with HA-tagged RASSF2 [1], the binding result was “binds”. In the case of 14-3-3ε (from UniProt P62258 1-255), in the assay with HA-tagged RASSF2 [1], the binding entry is reported as “binds”. Same read-out and setting: the result for “DnaJ homolog subfamily A member 1 (from UniProt P31689 1-397)” reads “binds”; that for “C1QBP (endogenous, HEK-293T) (from UniProt Q07021 74-282)”, “binds”. As to “Vimentin (endogenous, HEK-293T) (from UniProt P08670 1-466)”, the binding entry is recorded as “binds” with HA-tagged RASSF2 [1] and “no binding” with HA-tagged RASSF2 [2].

B1: Ribonuclease inhibitor (protein, UniProt P13489 1-461)
chain: MSLDIQSLDIQCEELSDARWAELLPLLQQCQVVRLDDCGLTEARCKDISSALRVNPALAELNLRSNELGDVGVHCVLQGLQTPSCKIQKLSLQNCCLTGAGCGVLSSTLRTLPTLQELHLSDNLLGDAGLQLLCEGLLDPQCRLEKLQLEYCSLSAASCEPLASVLRAKPDFKELTVSNNDINEAGVRVLCQGLKDSPCQLEALKLESCGVTSDNCRDLCGIVASKASLRELALGSNKLGDVGMAELCPGLLHPSSRLRTLWIWECGITAKGCGDLCRVLRAKESLKELSLAGNELGDEGARLLCETLLEPGCQLESLWVKSCSFTAACCSHFSSVLAQNRFLLELQISNNRLEDAGVRELCQGLGQPGSVLRVLWLADCDVSDSSCSSLAATLLANHSLRELDLSNNCLGDAGILQLVESVRQPGCLLEQLVLYDIYWSEEMEDRLQALEKDKPSLRVIS
Regarding B1, the binding result with HA-tagged RASSF2 [1] is reported as “binds”.

B2: Protein phosphatase 1G (protein, UniProt O15355 1-546)
chain: MGAYLSQPNTVKCSGDGVGAPRLPLPYGFSAMQGWRVSMEDAHNCIPELDSETAMFSVYDGHGGEEVALYCAKYLPDIIKDQKAYKEGKLQKALEDAFLAIDAKLTTEEVIKELAQIAGRPTEDEDEKEKVADEDDVDNEEAALLHEEATMTIEELLTRYGQNCHKGPPHSKSGGGTGEEPGSQGLNGEAGPEDSTRETPSQENGPTAKAYTGFSSNSERGTEAGQVGEPGIPTGEAGPSCSSASDKLPRVAKSKFFEDSEDESDEAEEEEEDSEECSEEEDGYSSEEAENEEDEDDTEEAEEDDEEEEEEMMVPGMEGKEEPGSDSGTTAVVALIRGKQLIVANAGDSRCVVSEAGKALDMSYDHKPEDEVELARIKNAGGKVTMDGRVNGGLNLSRAIGDHFYKRNKNLPPEEQMISALPDIKVLTLTDDHEFMVIACDGIWNVMSSQEVVDFIQSKISQRDENGELRLLSSIVEELLDQCLAPDTSGDGTGCDNMTCIIICFKPRNTAELQPESGKRKLEEVLSTEGAEENGNSDKKKKAKRD
In the case of B2, the binding result with HA-tagged RASSF2 [1] is “binds”.

The record behind these values is article PMC4810121, “Proteomics Analysis Reveals Novel RASSF2 Interaction Partners” (Cancers, 2016).
